Structures can show the parent of a compound that is named as a salt. This is one part of the list. Hit calls seldom repeat between salt and free forms of one compound.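 Kinases were expressed as nanoluciferase fusions in K562 cells and luminescence was read every 4 h between 2 and 18 h as percent of control, DMSO set to 100% and a positive control to 0%. A time point counts as decreased when the signal drops significantly (2 sigma). The hit call is the authors' own, does not follow from the count of time points alone, and its rule is not shown.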
Columns and labels:
Experiment in all cases: kinase-Nluc reporter destabilization hit call (1 = scored as downregulated) (binary); higher = compound decreases kinase abundance
Settings in all cases: K562; 2-18 h
PDPK1 = PDPK1 (UniProt O15530)
PIK4CA = PIK4CA (UniProt P42356)
PIK4CB = PIK4CB (UniProt Q9UBF8)
PLK1 = PLK1 (UniProt P53350)
PRKAA1 = PRKAA1 (UniProt Q13131)
PRKCA = PRKCA (UniProt P17252)
PTK2 = PTK2 (UniProt Q05397)
PTK2B = PTK2B (UniProt Q14289)
RAF1 = RAF1 (UniProt P04049)
[1] = molecular target: RAF1_S257L (clone: RAF1_mut) (UniProt P04049)
RET = RET (UniProt P07949)
[2] = molecular target: RET_M918T (clone: RET_mut) (UniProt P07949)
RIOK1 = RIOK1 (UniProt Q9BRS2)
RIPK1 = RIPK1 (UniProt Q13546)
RIPK2 = RIPK2 (UniProt O43353)
ROR2 = ROR2 (UniProt Q01974)
RPS6KA1 = RPS6KA1 (UniProt Q15418)
SPHK1 = SPHK1 (UniProt Q9NYA1)
SRC = SRC (UniProt P12931)
STK24 = STK24 (UniProt Q9Y6E0)

The chains behind the UniProt entries cited, without tags or fusion partners. Where a name states a change or a piece, a line headed by the entry shows the natural chain unless it says otherwise.
UniProt O15530: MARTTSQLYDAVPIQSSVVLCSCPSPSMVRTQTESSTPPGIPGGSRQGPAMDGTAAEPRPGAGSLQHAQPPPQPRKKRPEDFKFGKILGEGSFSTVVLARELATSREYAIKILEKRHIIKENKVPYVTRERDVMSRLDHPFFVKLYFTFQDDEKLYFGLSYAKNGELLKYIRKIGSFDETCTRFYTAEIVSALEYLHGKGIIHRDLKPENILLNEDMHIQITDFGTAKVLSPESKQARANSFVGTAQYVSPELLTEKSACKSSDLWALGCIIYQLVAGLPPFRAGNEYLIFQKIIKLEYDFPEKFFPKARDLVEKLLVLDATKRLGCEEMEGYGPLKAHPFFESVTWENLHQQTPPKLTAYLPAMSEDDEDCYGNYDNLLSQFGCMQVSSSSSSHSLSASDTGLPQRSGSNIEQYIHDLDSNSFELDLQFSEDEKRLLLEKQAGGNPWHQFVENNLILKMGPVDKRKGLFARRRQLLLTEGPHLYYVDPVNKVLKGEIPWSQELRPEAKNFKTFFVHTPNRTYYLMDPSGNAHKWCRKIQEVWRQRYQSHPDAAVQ
UniProt Q9UBF8: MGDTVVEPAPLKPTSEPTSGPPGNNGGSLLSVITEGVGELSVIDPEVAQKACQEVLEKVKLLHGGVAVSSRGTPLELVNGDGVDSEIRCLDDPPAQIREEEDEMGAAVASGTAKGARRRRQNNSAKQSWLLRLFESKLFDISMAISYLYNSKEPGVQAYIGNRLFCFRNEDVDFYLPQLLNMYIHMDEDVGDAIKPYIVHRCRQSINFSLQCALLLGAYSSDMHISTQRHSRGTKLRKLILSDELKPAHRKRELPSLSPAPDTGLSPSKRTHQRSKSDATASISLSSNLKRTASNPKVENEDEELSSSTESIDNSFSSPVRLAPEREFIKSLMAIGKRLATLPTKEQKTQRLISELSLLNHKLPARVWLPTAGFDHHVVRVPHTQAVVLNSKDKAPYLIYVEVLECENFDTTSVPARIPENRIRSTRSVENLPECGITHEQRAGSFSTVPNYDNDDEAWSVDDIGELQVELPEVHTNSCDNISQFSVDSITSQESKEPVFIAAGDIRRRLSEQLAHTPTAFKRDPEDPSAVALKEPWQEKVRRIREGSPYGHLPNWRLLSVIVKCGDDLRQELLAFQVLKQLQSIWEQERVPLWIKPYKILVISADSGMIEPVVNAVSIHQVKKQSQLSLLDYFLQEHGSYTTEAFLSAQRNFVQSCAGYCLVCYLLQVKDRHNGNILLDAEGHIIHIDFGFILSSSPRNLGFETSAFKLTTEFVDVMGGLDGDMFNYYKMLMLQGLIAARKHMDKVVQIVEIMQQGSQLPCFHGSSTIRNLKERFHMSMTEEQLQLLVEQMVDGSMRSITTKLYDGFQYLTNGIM
UniProt Q13131: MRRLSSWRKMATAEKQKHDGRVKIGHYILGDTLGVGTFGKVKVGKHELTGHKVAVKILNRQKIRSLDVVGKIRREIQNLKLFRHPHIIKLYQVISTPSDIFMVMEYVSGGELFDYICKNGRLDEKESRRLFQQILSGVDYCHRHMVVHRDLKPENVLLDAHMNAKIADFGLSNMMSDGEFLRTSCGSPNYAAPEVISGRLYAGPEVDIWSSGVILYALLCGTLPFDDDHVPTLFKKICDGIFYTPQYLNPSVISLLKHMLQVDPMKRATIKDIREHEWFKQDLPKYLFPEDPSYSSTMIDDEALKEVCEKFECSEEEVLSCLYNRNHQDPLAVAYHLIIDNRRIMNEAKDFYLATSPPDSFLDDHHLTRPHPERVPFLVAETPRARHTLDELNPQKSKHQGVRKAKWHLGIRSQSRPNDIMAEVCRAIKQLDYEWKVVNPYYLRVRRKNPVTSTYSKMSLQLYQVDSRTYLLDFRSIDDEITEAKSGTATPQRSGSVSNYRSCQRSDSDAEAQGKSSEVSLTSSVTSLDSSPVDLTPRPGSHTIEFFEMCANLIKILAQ
UniProt Q14289, whole entry, looked up: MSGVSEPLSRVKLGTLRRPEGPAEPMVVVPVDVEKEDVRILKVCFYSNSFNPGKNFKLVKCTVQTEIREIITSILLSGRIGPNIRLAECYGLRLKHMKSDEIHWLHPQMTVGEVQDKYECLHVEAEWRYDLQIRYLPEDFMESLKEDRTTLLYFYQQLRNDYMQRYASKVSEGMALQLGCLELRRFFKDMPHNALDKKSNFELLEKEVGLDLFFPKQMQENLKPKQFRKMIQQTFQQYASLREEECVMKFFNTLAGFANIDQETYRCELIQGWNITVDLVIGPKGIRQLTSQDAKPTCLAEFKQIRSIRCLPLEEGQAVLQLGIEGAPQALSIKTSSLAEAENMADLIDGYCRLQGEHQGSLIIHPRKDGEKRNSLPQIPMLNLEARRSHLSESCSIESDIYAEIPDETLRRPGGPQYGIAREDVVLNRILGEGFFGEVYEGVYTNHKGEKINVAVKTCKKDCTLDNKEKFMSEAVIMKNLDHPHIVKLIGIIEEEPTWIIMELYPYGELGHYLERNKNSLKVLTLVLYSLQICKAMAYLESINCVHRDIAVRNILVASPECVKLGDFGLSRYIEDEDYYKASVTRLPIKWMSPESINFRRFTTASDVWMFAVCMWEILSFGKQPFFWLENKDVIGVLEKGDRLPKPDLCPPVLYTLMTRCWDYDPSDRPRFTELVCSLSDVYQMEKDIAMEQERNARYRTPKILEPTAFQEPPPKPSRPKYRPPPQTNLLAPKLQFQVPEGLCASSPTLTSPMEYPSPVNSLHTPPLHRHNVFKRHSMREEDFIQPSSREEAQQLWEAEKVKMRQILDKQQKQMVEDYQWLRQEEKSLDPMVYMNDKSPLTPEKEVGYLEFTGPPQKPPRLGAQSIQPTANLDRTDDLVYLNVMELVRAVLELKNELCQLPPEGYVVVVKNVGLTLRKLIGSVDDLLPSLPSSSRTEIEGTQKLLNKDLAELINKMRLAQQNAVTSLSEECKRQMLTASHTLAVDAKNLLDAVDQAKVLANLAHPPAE
UniProt P07949, whole entry, looked up: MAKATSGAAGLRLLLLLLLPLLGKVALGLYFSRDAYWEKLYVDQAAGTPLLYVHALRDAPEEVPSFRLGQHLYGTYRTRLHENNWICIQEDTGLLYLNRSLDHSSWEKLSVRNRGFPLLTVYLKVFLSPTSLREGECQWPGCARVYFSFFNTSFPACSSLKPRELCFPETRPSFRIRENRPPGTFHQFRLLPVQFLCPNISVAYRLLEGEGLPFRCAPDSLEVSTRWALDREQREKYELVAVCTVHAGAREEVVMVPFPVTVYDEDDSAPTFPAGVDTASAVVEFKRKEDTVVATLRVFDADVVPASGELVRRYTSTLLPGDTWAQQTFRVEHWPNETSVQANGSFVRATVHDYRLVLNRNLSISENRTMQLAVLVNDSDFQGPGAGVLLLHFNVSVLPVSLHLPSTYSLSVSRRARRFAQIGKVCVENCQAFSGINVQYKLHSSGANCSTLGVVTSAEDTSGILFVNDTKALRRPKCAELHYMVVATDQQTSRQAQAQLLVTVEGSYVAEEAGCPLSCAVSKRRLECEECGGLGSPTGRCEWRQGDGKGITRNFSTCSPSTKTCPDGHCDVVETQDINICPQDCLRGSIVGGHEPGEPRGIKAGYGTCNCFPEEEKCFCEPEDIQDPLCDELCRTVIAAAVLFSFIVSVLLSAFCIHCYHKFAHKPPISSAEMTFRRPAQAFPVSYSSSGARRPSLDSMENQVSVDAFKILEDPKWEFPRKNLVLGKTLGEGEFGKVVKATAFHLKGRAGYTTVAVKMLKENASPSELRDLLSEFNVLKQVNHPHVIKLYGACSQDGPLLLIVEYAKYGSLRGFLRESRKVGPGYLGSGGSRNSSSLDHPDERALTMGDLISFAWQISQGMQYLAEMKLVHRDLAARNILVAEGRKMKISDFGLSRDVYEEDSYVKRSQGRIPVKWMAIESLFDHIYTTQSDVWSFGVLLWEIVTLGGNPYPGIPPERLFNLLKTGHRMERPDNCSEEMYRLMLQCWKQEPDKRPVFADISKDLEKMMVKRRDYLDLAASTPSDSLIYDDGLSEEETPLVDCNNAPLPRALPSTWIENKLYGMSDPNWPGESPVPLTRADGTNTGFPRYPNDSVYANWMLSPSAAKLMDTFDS
UniProt P07949, whole entry M918T, looked up: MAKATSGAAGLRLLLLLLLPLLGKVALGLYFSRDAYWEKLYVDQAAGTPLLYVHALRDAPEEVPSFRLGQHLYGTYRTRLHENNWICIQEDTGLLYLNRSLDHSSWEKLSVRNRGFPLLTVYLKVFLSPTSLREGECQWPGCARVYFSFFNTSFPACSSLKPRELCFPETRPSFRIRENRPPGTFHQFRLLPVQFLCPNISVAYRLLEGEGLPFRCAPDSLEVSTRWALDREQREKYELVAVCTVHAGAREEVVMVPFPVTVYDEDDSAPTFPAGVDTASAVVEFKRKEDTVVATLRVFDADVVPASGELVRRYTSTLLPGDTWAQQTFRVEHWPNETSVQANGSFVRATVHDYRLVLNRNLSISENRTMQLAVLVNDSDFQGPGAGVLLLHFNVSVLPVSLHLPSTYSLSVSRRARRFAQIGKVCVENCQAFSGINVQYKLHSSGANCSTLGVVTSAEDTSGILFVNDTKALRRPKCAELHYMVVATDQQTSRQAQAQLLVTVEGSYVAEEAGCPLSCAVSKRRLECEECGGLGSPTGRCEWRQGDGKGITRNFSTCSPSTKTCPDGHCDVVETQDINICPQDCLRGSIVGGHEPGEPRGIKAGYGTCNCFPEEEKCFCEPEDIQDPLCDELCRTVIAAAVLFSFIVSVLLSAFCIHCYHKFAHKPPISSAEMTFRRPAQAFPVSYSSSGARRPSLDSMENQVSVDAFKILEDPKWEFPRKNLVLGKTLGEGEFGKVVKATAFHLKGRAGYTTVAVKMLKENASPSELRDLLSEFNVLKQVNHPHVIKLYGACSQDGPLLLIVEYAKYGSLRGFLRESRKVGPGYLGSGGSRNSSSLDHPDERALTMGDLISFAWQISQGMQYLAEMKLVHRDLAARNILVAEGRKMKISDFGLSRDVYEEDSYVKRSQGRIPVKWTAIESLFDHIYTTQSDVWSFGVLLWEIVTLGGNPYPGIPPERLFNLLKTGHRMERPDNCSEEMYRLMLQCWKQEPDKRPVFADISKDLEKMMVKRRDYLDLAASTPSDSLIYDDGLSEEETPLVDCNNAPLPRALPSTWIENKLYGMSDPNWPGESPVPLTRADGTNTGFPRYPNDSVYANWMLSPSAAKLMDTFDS
UniProt Q9BRS2: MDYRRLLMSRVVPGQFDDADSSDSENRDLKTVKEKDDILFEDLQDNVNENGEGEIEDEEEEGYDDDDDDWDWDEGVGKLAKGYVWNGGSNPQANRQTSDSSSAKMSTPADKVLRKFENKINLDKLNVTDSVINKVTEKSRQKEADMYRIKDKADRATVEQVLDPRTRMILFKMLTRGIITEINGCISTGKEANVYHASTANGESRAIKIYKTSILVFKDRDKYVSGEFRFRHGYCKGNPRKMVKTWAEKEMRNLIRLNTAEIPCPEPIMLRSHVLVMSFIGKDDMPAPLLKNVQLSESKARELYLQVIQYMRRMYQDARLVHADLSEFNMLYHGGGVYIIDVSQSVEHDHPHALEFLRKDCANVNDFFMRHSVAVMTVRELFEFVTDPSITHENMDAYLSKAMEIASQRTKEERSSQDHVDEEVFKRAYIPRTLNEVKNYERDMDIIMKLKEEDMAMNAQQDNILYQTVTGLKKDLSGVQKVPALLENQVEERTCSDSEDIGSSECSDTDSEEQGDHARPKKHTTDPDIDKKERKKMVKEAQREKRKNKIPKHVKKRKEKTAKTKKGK
UniProt Q9NYA1, whole entry: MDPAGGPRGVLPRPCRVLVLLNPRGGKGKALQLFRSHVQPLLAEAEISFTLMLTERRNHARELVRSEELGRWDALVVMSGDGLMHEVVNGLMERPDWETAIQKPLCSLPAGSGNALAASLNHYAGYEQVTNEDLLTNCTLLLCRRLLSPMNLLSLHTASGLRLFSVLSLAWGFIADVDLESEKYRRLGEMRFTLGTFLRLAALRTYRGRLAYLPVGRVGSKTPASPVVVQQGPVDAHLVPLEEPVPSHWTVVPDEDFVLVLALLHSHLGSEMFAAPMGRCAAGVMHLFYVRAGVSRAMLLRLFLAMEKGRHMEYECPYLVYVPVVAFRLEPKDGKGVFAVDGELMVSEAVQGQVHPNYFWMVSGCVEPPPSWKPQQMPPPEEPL
UniProt Q9Y6E0: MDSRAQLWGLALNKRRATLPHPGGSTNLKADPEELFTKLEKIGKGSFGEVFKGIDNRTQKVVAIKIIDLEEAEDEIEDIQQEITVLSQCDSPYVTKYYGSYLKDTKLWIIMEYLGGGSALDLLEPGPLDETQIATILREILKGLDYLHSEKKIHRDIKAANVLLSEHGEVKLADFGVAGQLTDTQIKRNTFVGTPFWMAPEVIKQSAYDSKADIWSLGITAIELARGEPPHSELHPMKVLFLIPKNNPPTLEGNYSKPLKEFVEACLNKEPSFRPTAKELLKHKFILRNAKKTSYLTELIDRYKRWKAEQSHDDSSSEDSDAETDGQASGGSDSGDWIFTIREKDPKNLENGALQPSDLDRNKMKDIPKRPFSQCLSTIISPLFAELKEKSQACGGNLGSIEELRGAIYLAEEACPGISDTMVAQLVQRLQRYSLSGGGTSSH

SMILES | kinase-Nluc reporter destabilization hit call (PDPK1) | kinase-Nluc reporter destabilization hit call (PIK4CA) | kinase-Nluc reporter destabilization hit call (PIK4CB) | kinase-Nluc reporter destabilization hit call (PLK1) | kinase-Nluc reporter destabilization hit call (PRKAA1) | kinase-Nluc reporter destabilization hit call (PRKCA) | kinase-Nluc reporter destabilization hit call (PTK2) | kinase-Nluc reporter destabilization hit call (PTK2B) | kinase-Nluc reporter destabilization hit call (RAF1) | kinase-Nluc reporter destabilization hit call [1] | kinase-Nluc reporter destabilization hit call (RET) | kinase-Nluc reporter destabilization hit call [2] | kinase-Nluc reporter destabilization hit call (RIOK1) | kinase-Nluc reporter destabilization hit call (RIPK1) | kinase-Nluc reporter destabilization hit call (RIPK2) | kinase-Nluc reporter destabilization hit call (ROR2) | kinase-Nluc reporter destabilization hit call (RPS6KA1) | kinase-Nluc reporter destabilization hit call (SPHK1) | kinase-Nluc reporter destabilization hit call (SRC) | kinase-Nluc reporter destabilization hit call (STK24)
C[C@H]1CC[C@]2(NC1)O[C@H]1C[C@H]3[C@@H]4CC[C@H]5C[C@@H](O[C@@H]6O[C@H](CO)[C@H](O[C@@H]7O[C@H](CO)[C@@H](O)[C@H](O[C@@H]8OC[C@@H](O)[C@H](O)[C@H]8O)[C@H]7O[C@@H]7O[C@H](CO)[C@@H](O)[C@H](O)[C@H]7O)[C@H](O)[C@H]6O)CC[C@]5(C)[C@H]4CC[C@]3(C)[C@H]1[C@@H]2C [Tomatine] (2.5 µM) | inactive: 0 | inactive: 0 | inactive: 0 | inactive: 0 | inactive: 0 | inactive: 0 | inactive: 0 | inactive: 0 | inactive: 0 | inactive: 0 | active: 1 | inactive: 0 | inactive: 0 | inactive: 0 | inactive: 0 | inactive: 0 | inactive: 0 | inactive: 0 | inactive: 0 | inactive: 0
C=CC(=O)N[C@H]1C=C(C)c2c(-c3cnc4ccccc4c3)c3c(N)ncnc3n2C1 (10 µM) | inactive: 0 | inactive: 0 | inactive: 0 | inactive: 0 | inactive: 0 | inactive: 0 | inactive: 0 | inactive: 0 | inactive: 0 | inactive: 0 | inactive: 0 | inactive: 0 | inactive: 0 | inactive: 0 | inactive: 0 | inactive: 0 | inactive: 0 | inactive: 0 | inactive: 0 | inactive: 0
CC(C)=CC[C@@H](OC(=O)CC(C)(C)O)C1=CC(=O)c2c(O)ccc(O)c2C1=O [β-Hydroxyisovalerylshikonin] (2.5 µM) | inactive: 0 | inactive: 0 | inactive: 0 | inactive: 0 | inactive: 0 | inactive: 0 | inactive: 0 | inactive: 0 | inactive: 0 | inactive: 0 | inactive: 0 | inactive: 0 | inactive: 0 | inactive: 0 | inactive: 0 | inactive: 0 | inactive: 0 | inactive: 0 | inactive: 0 | inactive: 0
C[C@H]1CC[C@]2(NC1)O[C@H]1C[C@H]3[C@@H]4CC[C@H]5C[C@@H](O)CC[C@]5(C)[C@H]4CC[C@]3(C)[C@H]1[C@@H]2C [Tomatidine (hydrochloride)] (10 µM) | inactive: 0 | inactive: 0 | inactive: 0 | inactive: 0 | inactive: 0 | inactive: 0 | inactive: 0 | inactive: 0 | inactive: 0 | inactive: 0 | inactive: 0 | inactive: 0 | inactive: 0 | inactive: 0 | inactive: 0 | inactive: 0 | inactive: 0 | inactive: 0 | inactive: 0 | inactive: 0
O=C1C=CC[C@@H]2[C@H]3CCCN4CCC[C@@H](CN12)[C@@H]34 [Sophocarpine (monohydrate)] (2.5 µM) | inactive: 0 | inactive: 0 | inactive: 0 | inactive: 0 | inactive: 0 | inactive: 0 | inactive: 0 | inactive: 0 | inactive: 0 | inactive: 0 | inactive: 0 | inactive: 0 | inactive: 0 | inactive: 0 | inactive: 0 | inactive: 0 | inactive: 0 | inactive: 0 | inactive: 0 | inactive: 0
NCCc1cn(S(=O)(=O)c2c(Cl)nc3sccn23)c2ccccc12 (10 µM) | inactive: 0 | inactive: 0 | inactive: 0 | inactive: 0 | inactive: 0 | inactive: 0 | inactive: 0 | inactive: 0 | inactive: 0 | inactive: 0 | inactive: 0 | inactive: 0 | inactive: 0 | inactive: 0 | inactive: 0 | inactive: 0 | inactive: 0 | inactive: 0 | inactive: 0 | inactive: 0
C/C(O)=C(\C#N)C(=O)Nc1cc(Br)ccc1Br (10 µM) | inactive: 0 | inactive: 0 | inactive: 0 | inactive: 0 | inactive: 0 | inactive: 0 | inactive: 0 | inactive: 0 | inactive: 0 | inactive: 0 | inactive: 0 | inactive: 0 | inactive: 0 | inactive: 0 | inactive: 0 | inactive: 0 | inactive: 0 | inactive: 0 | inactive: 0 | inactive: 0
O=c1cc(O)c2ccccc2o1 [4-Hydroxycoumarin] (10 µM) | inactive: 0 | inactive: 0 | inactive: 0 | inactive: 0 | inactive: 0 | inactive: 0 | inactive: 0 | inactive: 0 | inactive: 0 | inactive: 0 | inactive: 0 | inactive: 0 | inactive: 0 | inactive: 0 | inactive: 0 | inactive: 0 | inactive: 0 | inactive: 0 | inactive: 0 | inactive: 0
CC(C)(C)c1cc(C=C(C#N)C#N)cc(Br)c1O (2.5 µM) | inactive: 0 | inactive: 0 | inactive: 0 | inactive: 0 | inactive: 0 | inactive: 0 | inactive: 0 | inactive: 0 | inactive: 0 | inactive: 0 | inactive: 0 | inactive: 0 | inactive: 0 | inactive: 0 | inactive: 0 | inactive: 0 | inactive: 0 | inactive: 0 | inactive: 0 | inactive: 0
Cc1n[nH]cc1-c1cc2nc([C@@H]3CC4CCN3CC4)[nH]c(=O)c2s1 [Simurosertib] (2.5 µM) | inactive: 0 | inactive: 0 | inactive: 0 | inactive: 0 | inactive: 0 | inactive: 0 | inactive: 0 | inactive: 0 | inactive: 0 | inactive: 0 | inactive: 0 | inactive: 0 | inactive: 0 | inactive: 0 | inactive: 0 | inactive: 0 | inactive: 0 | inactive: 0 | inactive: 0 | inactive: 0
CCCCCCCCCCCCCCCCOC[C@H](COP(=O)([O-])OCC[N+](C)(C)C)OC(C)=O (10 µM) | inactive: 0 | inactive: 0 | inactive: 0 | inactive: 0 | inactive: 0 | inactive: 0 | inactive: 0 | inactive: 0 | inactive: 0 | inactive: 0 | inactive: 0 | inactive: 0 | inactive: 0 | inactive: 0 | inactive: 0 | inactive: 0 | inactive: 0 | inactive: 0 | inactive: 0 | inactive: 0
O=[N+]([O-])/C=C/c1ccc2c(c1)OCO2 (2.5 µM) | inactive: 0 | inactive: 0 | inactive: 0 | inactive: 0 | inactive: 0 | inactive: 0 | inactive: 0 | inactive: 0 | inactive: 0 | inactive: 0 | inactive: 0 | inactive: 0 | inactive: 0 | inactive: 0 | inactive: 0 | inactive: 0 | inactive: 0 | inactive: 0 | inactive: 0 | inactive: 0
COc1ccc2c(c[n+](C)c3c4cc5c(cc4ccc23)OCO5)c1OC [Chelerythrine (chloride)] (10 µM) | inactive: 0 | inactive: 0 | inactive: 0 | inactive: 0 | inactive: 0 | inactive: 0 | inactive: 0 | inactive: 0 | inactive: 0 | inactive: 0 | inactive: 0 | inactive: 0 | inactive: 0 | inactive: 0 | inactive: 0 | inactive: 0 | inactive: 0 | inactive: 0 | inactive: 0 | inactive: 0
Cc1[nH]ncc1-c1cc2nc([C@H]3CC4CCN3CC4)[nH]c(=O)c2s1 [(R)-Simurosertib] (10 µM) | inactive: 0 | inactive: 0 | inactive: 0 | inactive: 0 | inactive: 0 | inactive: 0 | inactive: 0 | inactive: 0 | inactive: 0 | inactive: 0 | inactive: 0 | inactive: 0 | inactive: 0 | inactive: 0 | inactive: 0 | inactive: 0 | inactive: 0 | inactive: 0 | inactive: 0 | inactive: 0
O=C(N[C@@H](COc1ccc2[nH]c(=O)[nH]c2c1)c1ccccc1)c1cccn(Cc2ccc(F)c(F)c2)c1=O (2.5 µM) |  | inactive: 0 | inactive: 0 | inactive: 0 | inactive: 0 | inactive: 0 | inactive: 0 | inactive: 0 | inactive: 0 | inactive: 0 | inactive: 0 | inactive: 0 | inactive: 0 | inactive: 0 | inactive: 0 | inactive: 0 | inactive: 0 | inactive: 0 | inactive: 0 | inactive: 0
COc1ccc(/C=C/c2cc(OC)c(OC)c(OC)c2)cc1 (2.5 µM) | inactive: 0 | inactive: 0 | inactive: 0 | inactive: 0 | inactive: 0 | inactive: 0 | inactive: 0 | inactive: 0 | inactive: 0 | inactive: 0 | inactive: 0 | inactive: 0 | inactive: 0 | inactive: 0 | inactive: 0 | inactive: 0 | inactive: 0 | inactive: 0 | inactive: 0 | inactive: 0
O=C1C=CC[C@@H]2[C@H]3CCCN4CCC[C@@H](CN12)[C@@H]34 [Sophocarpine] (10 µM) | inactive: 0 | inactive: 0 | inactive: 0 | inactive: 0 | inactive: 0 | inactive: 0 | inactive: 0 | inactive: 0 | inactive: 0 | inactive: 0 | inactive: 0 | inactive: 0 | inactive: 0 | inactive: 0 | inactive: 0 | inactive: 0 | inactive: 0 | inactive: 0 | inactive: 0 | inactive: 0
COc1cc2c(cc1F)C(c1ccccc1Cl)=Nc1c(n[nH]c1C)N2 (0.5 µM) | inactive: 0 | inactive: 0 | inactive: 0 | inactive: 0 | inactive: 0 | inactive: 0 | inactive: 0 | inactive: 0 | inactive: 0 | inactive: 0 |  |  | inactive: 0 | inactive: 0 | inactive: 0 | inactive: 0 | inactive: 0 | inactive: 0 | inactive: 0 | inactive: 0

Rewritten comma-delimited: part of the list above.
SMILES,kinase-Nluc reporter destabilization hit call (PDPK1),kinase-Nluc reporter destabilization hit call (PIK4CA),kinase-Nluc reporter destabilization hit call (PIK4CB),kinase-Nluc reporter destabilization hit call (PLK1),kinase-Nluc reporter destabilization hit call (PRKAA1),kinase-Nluc reporter destabilization hit call (PRKCA),kinase-Nluc reporter destabilization hit call (PTK2),kinase-Nluc reporter destabilization hit call (PTK2B),kinase-Nluc reporter destabilization hit call (RAF1),kinase-Nluc reporter destabilization hit call [1],kinase-Nluc reporter destabilization hit call (RET),kinase-Nluc reporter destabilization hit call [2],kinase-Nluc reporter destabilization hit call (RIOK1),kinase-Nluc reporter destabilization hit call (RIPK1),kinase-Nluc reporter destabilization hit call (RIPK2),kinase-Nluc reporter destabilization hit call (ROR2),kinase-Nluc reporter destabilization hit call (RPS6KA1),kinase-Nluc reporter destabilization hit call (SPHK1),kinase-Nluc reporter destabilization hit call (SRC),kinase-Nluc reporter destabilization hit call (STK24)
CCCCCCCCCCCCCCCCOC[C@H](COP(=O)([O-])OCC[N+](C)(C)C)OC(C)=O (10 µM),inactive: 0,inactive: 0,inactive: 0,inactive: 0,inactive: 0,inactive: 0,inactive: 0,inactive: 0,inactive: 0,inactive: 0,inactive: 0,inactive: 0,inactive: 0,inactive: 0,inactive: 0,inactive: 0,inactive: 0,inactive: 0,inactive: 0,inactive: 0
O=C(N[C@@H](COc1ccc2[nH]c(=O)[nH]c2c1)c1ccccc1)c1cccn(Cc2ccc(F)c(F)c2)c1=O (2.5 µM),,inactive: 0,inactive: 0,inactive: 0,inactive: 0,inactive: 0,inactive: 0,inactive: 0,inactive: 0,inactive: 0,inactive: 0,inactive: 0,inactive: 0,inactive: 0,inactive: 0,inactive: 0,inactive: 0,inactive: 0,inactive: 0,inactive: 0
